These are yes or no findings as the source states them, for the method shown. Some results given as binding are weak or reduced against the parent protein; the word gives no strength.
What was measured:
[1] = target: Notch-3-Fc-Chimera (aa40-467, EGF 1-11) (UniProt Q9UM47); experiment: ELISA; solid-phase binding assay: Notch-3-Fc chimera (aa40-467) 0.5 ug/mL coated on MaxiSorp plates; biotinylated ligands 10^-7 to 10^-11 mol/L in binding buffer (50 mM Tris, 150 mM NaCl, 5 mM MnCl2, 0.1% BSA, pH 7.2), 4°C, 3 h; streptavidin-HRP, absorbance at 450 nm; both purified
[2] = target: full-length murine Notch-3 receptor overexpressed on HEK293 cells (murine) (UniProt Q61982); experiment: cell-based ligand binding assay (biotinylated ligand, streptavidin-HRP, absorbance at 450 nm); HEK293(T) cells overexpressing full-length murine Notch-3 in 24-well plates; biotinylated ligands 10^-7 to 10^-11 mol/L in binding buffer (50 mM Tris, 150 mM NaCl, 5 mM MnCl2, 0.1% BSA, pH 7.2), 4°C, 3 h; only the binder purified

The chains behind the UniProt entries cited, without tags or fusion partners. Where a name states a change or a piece, a line headed by the entry shows the natural chain unless it says otherwise. Residues count along the entry.
UniProt Q9UM47, residues 40-467: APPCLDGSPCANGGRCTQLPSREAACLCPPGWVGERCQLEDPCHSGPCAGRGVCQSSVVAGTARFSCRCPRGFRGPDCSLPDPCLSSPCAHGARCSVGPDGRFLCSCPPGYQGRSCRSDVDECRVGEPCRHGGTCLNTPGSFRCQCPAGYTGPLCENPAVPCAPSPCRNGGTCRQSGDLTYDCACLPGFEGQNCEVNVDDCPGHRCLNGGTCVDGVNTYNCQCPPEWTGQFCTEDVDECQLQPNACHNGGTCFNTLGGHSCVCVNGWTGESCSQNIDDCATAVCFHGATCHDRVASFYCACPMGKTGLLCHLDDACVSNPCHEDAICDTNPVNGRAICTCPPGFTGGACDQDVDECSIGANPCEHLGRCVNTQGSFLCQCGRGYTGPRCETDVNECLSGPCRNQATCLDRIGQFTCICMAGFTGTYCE
UniProt Q61982, residues 40-2318: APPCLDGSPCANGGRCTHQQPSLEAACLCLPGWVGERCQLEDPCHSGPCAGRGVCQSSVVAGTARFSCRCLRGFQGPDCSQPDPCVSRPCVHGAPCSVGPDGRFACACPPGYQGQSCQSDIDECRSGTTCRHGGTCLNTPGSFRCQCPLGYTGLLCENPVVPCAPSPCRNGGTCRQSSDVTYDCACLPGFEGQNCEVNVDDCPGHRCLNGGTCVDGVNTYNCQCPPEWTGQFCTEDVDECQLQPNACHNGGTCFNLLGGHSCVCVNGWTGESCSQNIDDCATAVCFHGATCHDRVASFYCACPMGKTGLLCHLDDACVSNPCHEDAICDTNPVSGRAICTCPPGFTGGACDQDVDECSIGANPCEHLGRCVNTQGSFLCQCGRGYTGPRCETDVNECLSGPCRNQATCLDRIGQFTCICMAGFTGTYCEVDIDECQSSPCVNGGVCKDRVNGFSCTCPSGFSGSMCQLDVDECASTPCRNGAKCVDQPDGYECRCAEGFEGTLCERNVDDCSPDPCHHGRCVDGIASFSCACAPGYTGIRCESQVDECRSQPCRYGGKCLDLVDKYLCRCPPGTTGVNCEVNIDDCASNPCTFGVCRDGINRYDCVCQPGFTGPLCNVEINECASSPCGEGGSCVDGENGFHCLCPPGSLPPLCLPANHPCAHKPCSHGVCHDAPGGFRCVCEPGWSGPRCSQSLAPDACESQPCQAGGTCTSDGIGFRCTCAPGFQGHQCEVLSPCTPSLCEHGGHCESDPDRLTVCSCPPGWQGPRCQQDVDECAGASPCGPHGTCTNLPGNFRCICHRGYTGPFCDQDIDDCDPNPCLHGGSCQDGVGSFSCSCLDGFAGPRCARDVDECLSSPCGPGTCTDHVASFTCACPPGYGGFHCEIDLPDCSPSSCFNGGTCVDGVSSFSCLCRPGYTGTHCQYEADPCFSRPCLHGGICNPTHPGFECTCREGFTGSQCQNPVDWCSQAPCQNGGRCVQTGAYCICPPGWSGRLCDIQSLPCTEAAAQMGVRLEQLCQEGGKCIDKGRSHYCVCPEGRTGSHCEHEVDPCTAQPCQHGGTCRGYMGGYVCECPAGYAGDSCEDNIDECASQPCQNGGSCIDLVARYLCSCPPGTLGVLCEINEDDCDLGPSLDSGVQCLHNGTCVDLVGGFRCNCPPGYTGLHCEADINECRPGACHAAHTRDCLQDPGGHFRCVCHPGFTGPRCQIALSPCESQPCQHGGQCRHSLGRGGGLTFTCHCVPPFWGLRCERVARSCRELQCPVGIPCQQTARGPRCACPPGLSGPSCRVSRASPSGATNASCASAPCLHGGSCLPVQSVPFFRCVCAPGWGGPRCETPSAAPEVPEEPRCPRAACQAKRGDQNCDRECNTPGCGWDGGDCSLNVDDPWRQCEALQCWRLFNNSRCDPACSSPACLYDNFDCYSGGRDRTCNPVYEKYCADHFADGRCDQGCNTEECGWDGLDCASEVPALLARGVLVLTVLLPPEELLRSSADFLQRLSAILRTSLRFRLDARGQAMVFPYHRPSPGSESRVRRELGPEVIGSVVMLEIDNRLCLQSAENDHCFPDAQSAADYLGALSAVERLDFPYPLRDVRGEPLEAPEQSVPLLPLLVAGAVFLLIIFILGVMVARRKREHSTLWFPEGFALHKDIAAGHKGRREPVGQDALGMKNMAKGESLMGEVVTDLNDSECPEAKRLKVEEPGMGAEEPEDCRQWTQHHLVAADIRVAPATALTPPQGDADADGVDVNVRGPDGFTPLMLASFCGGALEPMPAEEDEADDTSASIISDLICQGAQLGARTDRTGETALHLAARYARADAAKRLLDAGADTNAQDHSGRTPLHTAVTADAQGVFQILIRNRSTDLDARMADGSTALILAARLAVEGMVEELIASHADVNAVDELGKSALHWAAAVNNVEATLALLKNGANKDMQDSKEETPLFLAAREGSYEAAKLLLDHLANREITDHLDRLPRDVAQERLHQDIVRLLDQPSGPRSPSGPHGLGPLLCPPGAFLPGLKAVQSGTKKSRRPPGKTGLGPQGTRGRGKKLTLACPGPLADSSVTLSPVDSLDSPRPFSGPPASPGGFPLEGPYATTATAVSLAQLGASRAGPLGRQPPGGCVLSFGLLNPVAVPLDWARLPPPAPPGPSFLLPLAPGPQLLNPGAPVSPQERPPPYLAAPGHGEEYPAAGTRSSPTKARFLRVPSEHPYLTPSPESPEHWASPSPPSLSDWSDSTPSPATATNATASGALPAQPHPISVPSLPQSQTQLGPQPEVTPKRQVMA
UniProt P78504, residues 34-1067: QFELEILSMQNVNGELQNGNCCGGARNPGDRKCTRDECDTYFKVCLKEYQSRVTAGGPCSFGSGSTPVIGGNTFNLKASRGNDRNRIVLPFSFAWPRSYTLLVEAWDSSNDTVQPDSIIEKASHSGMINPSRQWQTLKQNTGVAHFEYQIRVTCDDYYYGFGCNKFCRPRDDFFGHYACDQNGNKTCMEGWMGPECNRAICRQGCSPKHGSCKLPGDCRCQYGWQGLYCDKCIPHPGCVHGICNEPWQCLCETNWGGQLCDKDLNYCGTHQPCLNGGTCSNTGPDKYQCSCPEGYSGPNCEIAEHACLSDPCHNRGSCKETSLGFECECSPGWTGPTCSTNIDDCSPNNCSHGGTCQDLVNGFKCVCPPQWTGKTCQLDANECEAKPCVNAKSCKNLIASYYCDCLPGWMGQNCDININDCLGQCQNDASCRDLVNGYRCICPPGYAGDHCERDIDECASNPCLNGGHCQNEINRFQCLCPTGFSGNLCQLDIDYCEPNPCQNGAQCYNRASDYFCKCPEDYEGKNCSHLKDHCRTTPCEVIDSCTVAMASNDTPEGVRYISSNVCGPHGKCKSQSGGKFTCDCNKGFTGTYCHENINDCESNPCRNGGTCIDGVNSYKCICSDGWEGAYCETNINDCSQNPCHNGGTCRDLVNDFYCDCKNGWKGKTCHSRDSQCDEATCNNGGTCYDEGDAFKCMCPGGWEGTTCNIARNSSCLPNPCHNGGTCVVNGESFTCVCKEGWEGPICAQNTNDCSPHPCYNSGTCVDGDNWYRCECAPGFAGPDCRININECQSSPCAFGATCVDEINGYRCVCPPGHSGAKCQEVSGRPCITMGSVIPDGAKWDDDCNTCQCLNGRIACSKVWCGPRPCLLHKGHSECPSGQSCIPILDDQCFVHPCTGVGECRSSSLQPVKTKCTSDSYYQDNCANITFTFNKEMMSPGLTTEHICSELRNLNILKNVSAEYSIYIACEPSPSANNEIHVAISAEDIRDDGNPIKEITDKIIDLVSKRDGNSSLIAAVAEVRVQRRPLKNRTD
UniProt P67809: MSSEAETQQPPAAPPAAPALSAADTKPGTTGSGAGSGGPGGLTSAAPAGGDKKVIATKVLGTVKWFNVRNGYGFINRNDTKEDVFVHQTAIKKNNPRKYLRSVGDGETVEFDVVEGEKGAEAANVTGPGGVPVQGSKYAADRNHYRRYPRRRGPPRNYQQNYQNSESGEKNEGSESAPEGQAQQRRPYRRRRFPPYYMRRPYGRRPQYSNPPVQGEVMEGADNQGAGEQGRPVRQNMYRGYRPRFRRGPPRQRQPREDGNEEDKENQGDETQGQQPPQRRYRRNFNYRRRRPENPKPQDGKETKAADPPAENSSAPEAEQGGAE

Substance | binding [1] | binding [2]
recombinant Jagged-1 (from UniProt P78504 34-1067) (ligand) | binds | binds
recombinant YB-1 (Y-box binding protein-1) (from UniProt P67809 1-324) (ligand) | binds | binds
in vitro guanidinylated recombinant YB-1 (YB-1-2G) (from UniProt P67809 1-324) (ligand) | binds | binds
